Data: PubChem BioAssay AID540276 (National Center for Advancing Translational Sciences (NCATS), 2011)
Out of some 300,000 compounds screened, about 5,400 (1.8%) were called active. The inconclusive results got no clear call from the source; some entries with a clear call stand among them for comparison. The call rests on the fitted dose curve; tested in HEK293 cells. Potencies of inconclusive entries are doubtful fits and often do not repeat.

assay: qHTS for inhibitors of binding or entry into cells for Marburg Virus; conditions: Marburg virus pseudotyped entry inhibition, cell reporter; series mostly up to 37.8 µM
Potency means the concentration at half of the fitted maximal effect.

Row | Structure (SMILES) | Potency
1 | CCOC(=O)C(CC)n1nnc2sc(-c3ccccc3)cc2c1=O (centres undefined) | inactive
2 | CC(C)Cc1nc(SCc2cccnc2)c2c(=O)n(C)c(=O)n(C)c2n1 | inconclusive: 22.4 µM [inhibitor, single point]
3 | CCN(CC(=O)Nc1c(F)cccc1F)C(=O)c1ccc(-n2cncn2)c([N+](=O)[O-])c1 | inconclusive: 1.26 µM [inhibitor, full curve]
4 | O=C(COC(=O)c1c2c(nc3ccccc13)CCN(Cc1ccccc1)C2)Nc1c(F)cccc1F | inconclusive: 9.2 µM [inhibitor, partial curve, poor fit]
5 | Cn1c2ccccc2c2cnn(CC(=O)NCCCN3CCCCC3)c(=O)c21 | inactive
6 | CC(=O)NC(Cc1ccccc1)c1ccc2c(c1)OCCCO2 (centres undefined) | inactive
7 | Cc1ccc(S(=O)(=O)N2CCCCC2)cc1C(=O)N(CCc1ccccc1)Cc1ccccc1 | inconclusive: 12.6 µM [inhibitor, partial curve, poor fit]
8 | COC(=O)c1ccc(NC(=O)c2cccc(OC)c2)cc1 | inconclusive: 14.1 µM [inhibitor, single point]
9 | CCCc1nc2ccccc2[nH]1 | inactive
10 | CCOc1ccc(CCNC(=O)c2ccc(OCc3c(C)noc3C)cc2)cc1OCC | inconclusive: 35.5 µM [inhibitor, single point]
11 | CC(C)C(NC(=O)CCNC(=O)c1ccc(C(C)(C)C)cc1)c1nc2ccccc2[nH]1 (centres undefined) | inconclusive: 20 µM [inhibitor, partial curve, poor fit]
12 | Cc1ccc(C(=O)C(C)OC(=O)C2CC(=O)N(C3CCCCC3)C2)cc1 (centres undefined) | inconclusive: 4.11 µM [inhibitor, single point]
13 | Cc1cc(/C=C2\NC(=S)N(C)C2=O)ccc1N1CCCC1 | inactive
14 | COc1ccc(CN2Cc3ccccc3Oc3ccc(Cl)cc3S2(=O)=O)cc1 | inconclusive: 0.396 µM [inhibitor, full curve, poor fit]
15 | Oc1ccc2cccnc2c1 | inconclusive: 25.1 µM [activator, single point]
16 | COc1ccccc1N1CCN(C(=O)c2ccccc2NC(=O)C2CCCCC2C(=O)O)CC1 (centres undefined) | inconclusive: 0.259 µM [activator, full curve, poor fit]
17 | CCOC(=O)C1=C(C)NC2=C(C1c1ccc([N+](=O)[O-])cc1)S(=O)(=O)c1ccccc12 (centres undefined) | inconclusive: 18.3 µM [inhibitor, partial curve, poor fit]
18 | Cc1oc(-c2ccccc2Cl)nc1CN(C)C(C)c1ccon1 (centres undefined) | inactive
19 | COc1ccccc1N1CCN(CCCOc2ccc(F)cc2)CC1 | inconclusive: 35.5 µM [inhibitor, partial curve, poor fit]
20 | Fc1ccccc1Cc1noc(CN2CCN(c3ccc(Cl)cn3)CC2)n1 | inconclusive: 14.1 µM [inhibitor, single point]
21 | Cc1cccc(-c2nc(CN3CCCC(C(=O)N4CCN(c5cc(Cl)ccc5C)CC4)C3)c(C)o2)c1 (centres undefined) | inconclusive: 20 µM [activator, single point]
22 | CCOc1ccc(CN2CCN(C(=O)c3ccccc3)CC2)cc1 | inconclusive: 14.1 µM [inhibitor, single point]

Not a retest: 2 of the compounds above.
Row | Structure (SMILES) | Potency
1 | CCOC(=O)C(CC)n1nnc2sc(-c3ccccc3)cc2c1=O (centres undefined) | inactive
2 | CC(C)Cc1nc(SCc2cccnc2)c2c(=O)n(C)c(=O)n(C)c2n1 | inconclusive: 22.4 µM [inhibitor, single point]

(list continues)

Row | Structure (SMILES) | Potency
23 | CN(C(=O)COC(=O)c1ccc2c(c1)OCCO2)c1ccccc1 | inconclusive: 4.47 µM [activator, single point]
24 | COc1cc(OC)cc(C(=O)NC(=S)NNC(=O)c2cnccn2)c1 | inconclusive: 6.31 µM [inhibitor, full curve, poor fit]
25 | O=C(c1ccc(F)cc1)c1cn(Cc2ccccc2F)c2cc3c(cc2c1=O)OCCO3 | inactive
26 | CC1CCCCN1C(=O)CSc1ccc(-c2ccc(F)cc2)nn1 (centres undefined) | inactive
27 | CCN(CC)CC(=O)Nc1ccc(-c2nc3cc(NC(=O)CN(CC)CC)ccc3o2)cc1 | active: 0.708 µM
28 | CCOC(=O)N/N=C/c1c(C)nn(-c2cccc(C(F)(F)F)c2)c1Cl | inconclusive: 2.24 µM [inhibitor, partial curve, poor fit]
29 | CC(=O)Nc1ccc(S(=O)(=O)NC2(C(F)(F)F)C(=O)Nc3c2c(=O)[nH]c(=O)n3-c2cccc(Cl)c2)cc1 (centres undefined) | inactive
30 | COc1ccc2cc3cc(C(=O)NCCN4CCc5ccccc5C4)sc3nc2c1 | inconclusive: 3.98 µM [activator, full curve, poor fit]
31 | Cc1ccc(/C=N/NC(=O)CSc2nc3ccccc3n2C)s1 | inactive
32 | COc1cc(O)c2c(c1)OC(C)(C)CC2=O | inconclusive: 16.4 µM [activator, single point]
33 | CC(C)OC(=O)Cn1nnc(-c2ccccc2)n1 | inconclusive: 35.5 µM [activator, single point]
34 | CCN(CC)CCN1C(=O)c2cccc3cc(N)cc(c23)C1=O | active: 10 µM
35 | CCOc1ccc(-c2c[n+]3c(n2-c2ccccc2)CCCCC3)cc1 | inconclusive: 23.1 µM [inhibitor, single point]
36 | Nc1nonc1OCCN1CCN(c2ccc([N+](=O)[O-])c3cccnc23)CC1 | inconclusive: 1.58 µM [inhibitor, partial curve, poor fit]
37 | N#CC1=C(SCc2ccccc2)NC2=C(C(=O)CCC2)[C@H]1c1ccc2c(c1)OCO2 | inconclusive: 35.5 µM [inhibitor, single point]
38 | O=C(NCc1cccs1)C1CC(c2ccc(Cl)cc2)=NO1 (centres undefined) | inconclusive: 35.5 µM [inhibitor, single point]
39 | OCCN1CCN(c2ncnc3sc(-c4ccccc4)cc23)CC1 | inconclusive: 35.5 µM [inhibitor, single point]
40 | CC1CC(C)CN(C(=O)CSc2nnc(-c3ccco3)o2)C1 (centres undefined) | inactive
41 | O=C1c2ccccc2C(=O)N1CC(=O)N1c2ccccc2Sc2ccc(C(F)(F)F)cc21 | inactive
42 | COc1ccc2c(c1)c1nnc(SCC(=O)NC3CC3)nc1n2C | inactive
43 | CC(C)OC(=O)c1ccc(Cn2nnc3sc4c(c3c2=O)CCCC4)cc1 | inconclusive: 22.4 µM [activator, partial curve, poor fit]
44 | O=C(CCCc1ccccc1)NCCN1CCOCC1 | inactive
